Laboratory results taken from the supplement of paper PMC10338343.
± gives the standard deviation. This is a selection; strong and weak results do not stand in their true shares. Many of these values have a large error.

System: EfPiwi piRISC loaded with piRNA #1 (26 nt)
Assay: pre-steady-state target cleavage rate (min^-1); guide: piRNA #1 5'p-UGAGGUAGUAGGUUGUAUAGUAUCCA; MIWI and MILI are mouse PIWI proteins and EfPiwi is from a freshwater sponge; tags in brackets are library labels; higher = faster piRNA-guided slicing of the target
Settings: auxiliary factor: 500 nM Ephydatia muelleri Gtsf1
Procedure, shortened: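 Reactions were run for 0–8 or 0–960 min at 33 °C in HEPES–potassium acetate buffer, combining 1 nM active affinity-purified piRISC with one synthetic guide, […] transcribed, DNA-blocked target RNA library and, in some cases, 500 nM GTSF1 partner protein. Sequencing of uncleaved targets followed, with normalisation to depth and to weakly complementary targets. Three trials were pooled, k3 was capped at 0.0001 min^-1, and the pre-steady-state cleavage rate was taken from a burst-and-steady-state fit.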

GGAGACGAUACAAUAGAACCUACUACCUCA was tested. Which “pre-steady-state target cleavage rate” value did it give?
The value was 0.00234 ± 0.0032.

How did the “pre-steady-state target cleavage rate” value turn out when GGAGACCUAACUAUACAAGGUACUACCUCA was run?
The value was 0.0019 ± 0.0033.

For GGAGACCUAUCAAUACAACCUACUACCUCA, which “pre-steady-state target cleavage rate” value is on record?
Its value is 0.00612 ± 0.0034.

For GGAGACCUAACUAUACAACCUACUAUCCUCA, which “pre-steady-state target cleavage rate” value is on record?
The value was 0.00341 ± 0.0035.

With GGAGAGGAUACUAGACAACCUACUACCUCA as the sequence, how does the “pre-steady-state target cleavage rate” value read?
Its value is 0.0121 ± 0.0055.

GGAGACCAAUACUAUACAACCUACUACCUCA was tested. Which “pre-steady-state target cleavage rate” value did it give?
The value was 0.5 ± 0.18.

Which “pre-steady-state target cleavage rate” value does the source give for GGAGACCAUACUAUACAACCUUCUACCUCA here?
Its value is 0.00625 ± 0.0028.

GGAGACCUAUCUUUACAACCUACUAGCUCA was tested. Which “pre-steady-state target cleavage rate” value did it give?
The value was 0.00135 ± 0.0044.

With GGAGACCAUACUAUAUAACCUACUACCUCA as the sequence, how does the “pre-steady-state target cleavage rate” value read?
The value was 0.00757 ± 0.0042.

How did the “pre-steady-state target cleavage rate” value turn out when GGAGACCAUACUAUUCAACCAACUACCUCA was run?
The value was 0.00225 ± 0.0042.

GGAGUGGUUAGUAUACAACCUACUACCUCA was tested. Which “pre-steady-state target cleavage rate” value did it give?
Its value is 0.00533 ± 0.0036.

Which “pre-steady-state target cleavage rate” value does the source give for GGAGACCUAACAAUACAACCUACUACCACA here?
The value was 0.00114 ± 0.0093.

Which “pre-steady-state target cleavage rate” value does the source give for GGAGACCUAACUAUUCAACCUACUAGCUCA here?
Its value is 0.00111 ± 0.0062.

For GGAGACCUAUCUAUACAACCUACUACCUAA, which “pre-steady-state target cleavage rate” value is on record?
The value was 0.00267 ± 0.0042.

With GGAGACCUUACUAUUCAACCUACAACCUCA as the sequence, how does the “pre-steady-state target cleavage rate” value read?
Its value is 0.000823 ± 0.011.

For GGAGACCUAUCUAUACAAGCUACUAGCUCA, which “pre-steady-state target cleavage rate” value is on record?
Its value is 0.00368 ± 0.0039.

GGAGUGGGAUACUAUACAACCUACUACCUCA was tested. Which “pre-steady-state target cleavage rate” value did it give?
The value was 0.143 ± 0.046.

GGAGACCAUACUAUACAUGGUACUACCUCA was tested. Which “pre-steady-state target cleavage rate” value did it give?
The value was 0.000473 ± 0.0056.

GGAGACCUUACUAAACAUCCUACUACCUCA was tested. Which “pre-steady-state target cleavage rate” value did it give?
The value was 0.00199 ± 0.0042.

GGAGACGAUACUAAACAACGUACUACCUCA was tested. Which “pre-steady-state target cleavage rate” value did it give?
Its value is 0.00192 ± 0.0019.

Which “pre-steady-state target cleavage rate” value does the source give for GGAGACCUAUCUAUACAAGGUACUACCUCA here?
The value was 0.000911 ± 0.0033.

With GGAGACGAAACUAUACAACCUACUUCCUCA as the sequence, how does the “pre-steady-state target cleavage rate” value read?
Its value is 0.00318 ± 0.0023.

With GGAGACCUUACUAUAGAACCUACUUCCUCA as the sequence, how does the “pre-steady-state target cleavage rate” value read?
The value was 0.00159 ± 0.0039.

How did the “pre-steady-state target cleavage rate” value turn out when GGAGACCUAACUAUACAACCUACAACCACA was run?
Its value is 0.0026 ± 0.0076.

For GGAGACCUAUCUAUUCAAGCUACUACCUCA, which “pre-steady-state target cleavage rate” value is on record?
Its value is 0.00282 ± 0.0044.

How did the “pre-steady-state target cleavage rate” value turn out when GGAGACCUUAGUAUACAACCUACUACCACA was run?
Its value is 0.00359 ± 0.0037.

GGAGACCUAUGUAUAGAACCUACUACGUCA was tested. Which “pre-steady-state target cleavage rate” value did it give?
Its value is 0.000985 ± 0.0069.

How did the “pre-steady-state target cleavage rate” value turn out when GGAGACGAUACAAUACAACCUACAACCUCA was run?
The value was 0.00274 ± 0.0027.

Which “pre-steady-state target cleavage rate” value does the source give for GGAGAGGAUUCUAUUCAACCUACUACCUCA here?
The value was 0.00244 ± 0.005.

Which “pre-steady-state target cleavage rate” value does the source give for GGAGACCUUACUAUACAACCUACUACCUGCA here?
Its value is 0.00419 ± 0.0031.

With GGAGACGAUACUAAACAACCUACUAGCUCA as the sequence, how does the “pre-steady-state target cleavage rate” value read?
Its value is 0.0015 ± 0.0026.

GGAGACCUAUGAUAUGUUCCUACAACGUCA was tested. Which “pre-steady-state target cleavage rate” value did it give?
Its value is less than 0.0001.

“GGAGACCUAUGUAUACAACCUACAUGGAGA [g8:g19:cont:t1A]” was tested. Which “pre-steady-state target cleavage rate” value did it give?
The value was 0.000636 ± 0.011.

How did the “pre-steady-state target cleavage rate” value turn out when GGAGUGGAUACUUUACAACCUACUAGCUCA was run?
Its value is 0.0012 ± 0.0027.

GGAGACCUUACUAUACAAGCUAGUACCUCA was tested. Which “pre-steady-state target cleavage rate” value did it give?
Its value is 0.00242 ± 0.0031.

With GGAGACCUUACUAUACAACCUAUUACCUCA as the sequence, how does the “pre-steady-state target cleavage rate” value read?
Its value is 0.0052 ± 0.0025.

For GGAGACCUAACUAUACAACCUCCUACCUCA, which “pre-steady-state target cleavage rate” value is on record?
The value was 0.00446 ± 0.0029.

How did the “pre-steady-state target cleavage rate” value turn out when GGAGACCUUACUAUACUAGCUACUACCUCA was run?
Its value is 0.00124 ± 0.0057.

For GGAGACCUAUGUAUACAUCCUACUACCACA, which “pre-steady-state target cleavage rate” value is on record?
Its value is 0.00047 ± 0.011.

Which “pre-steady-state target cleavage rate” value does the source give for GGAGUGGAUUACUAUACAACCUACUACCUCA here?
Its value is 0.00938 ± 0.0037.
